# Measured values as given in patent US6384077B1, “Highly purified EPA for treatment of schizophrenia and related disorders” (Laxdale Limited, priority 1999, dated 2002).
# At least one compound was matched to its structure with a doubt left.
# Columns and labels:
# severe depression = test: case history: severe depression, ethyl-EPA added to citalopram; format: in vivo, human; conditions: person two
# Excerpt: In addition to citalopram they were then given 1 g/day of ethyl-EPA. […] Another case was a young person who dropped out of college with a schizophrenic breakdown.
# schizophrenia = test: case history: schizophrenia, E-EPA added to clozapine; format: in vivo, human; conditions: patient not responding to typical neuroleptics; clozapine up to 900 mg/day
# Excerpt: This mechanism is thought to be responsible for their rapid effects on the so-called “positive” symptoms of schizophrenia (such as hallucinations, delusions and thought disorder). […] The D2 blocking action is also responsible for many of the adverse effects of these drugs, which include extrapyramidal movement disorders, excess prolactin secretion, and tardive dyskinesias. Examples of widely used drugs in this class include chlorpromazine, thioridazine, haloperidol, pimozide, flupenthixol and sulpiride.
# These may include blockade of one or more of the other dopamine receptors such as D1, D3 or D4, and also usually including blockade of one or more classes of serotonin receptors. […] They may also have actions at other receptors, including histamine, glutamate and acetyl choline receptors.
# The patient was treated with clozapine, eventually reaching a maximum dose of 900 mg/day.
# E-EPA in a dose of 2 g/day was then administered in addition to clozapine.
SMILES,"effect on depression, drug alone (severe depression)",clinical response to neuroleptic alone (schizophrenia)
"CN(C)CCCC1(c2ccc(F)cc2)OCc2cc(C#N)ccc21 (centres unmarked) [citalopram, reference compound]",relieved some of their depression,
CN1CCN(C2=Nc3cc(Cl)ccc3Nc3ccccc32)CC1 [clozapine],,some improvement
